Experimental data: paper PMC4551942
For at least one entry, the source does not settle the construct or the ends of the probe. Results from cells or extracts need not show a direct contact. No signal at the amounts used counts as a negative. At least one verdict was read from the data and is not stated in words by the source. For part of these data: Tags and fusion partners may be left off the protein sequences shown.

Protein sequences, listed by entry. Tags and fused reporters are not part of them. Lines headed by an entry give the natural chain unless they say otherwise; changes in a name come on top.
UniProt Q8NCV1: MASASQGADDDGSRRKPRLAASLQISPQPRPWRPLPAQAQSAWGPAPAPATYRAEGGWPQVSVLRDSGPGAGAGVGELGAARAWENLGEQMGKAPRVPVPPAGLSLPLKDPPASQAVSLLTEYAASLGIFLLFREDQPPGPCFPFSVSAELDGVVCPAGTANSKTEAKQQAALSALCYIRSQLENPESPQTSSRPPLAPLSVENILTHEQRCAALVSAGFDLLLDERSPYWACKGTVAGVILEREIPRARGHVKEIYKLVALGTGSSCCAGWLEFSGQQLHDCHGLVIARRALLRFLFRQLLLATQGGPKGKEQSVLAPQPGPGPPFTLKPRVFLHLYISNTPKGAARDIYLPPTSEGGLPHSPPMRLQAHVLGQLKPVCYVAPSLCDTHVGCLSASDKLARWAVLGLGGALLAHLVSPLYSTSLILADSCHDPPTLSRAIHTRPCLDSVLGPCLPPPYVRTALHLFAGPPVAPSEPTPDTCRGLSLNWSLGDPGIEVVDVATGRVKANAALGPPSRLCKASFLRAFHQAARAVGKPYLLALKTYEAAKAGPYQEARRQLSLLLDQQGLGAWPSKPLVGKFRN

Key:
Assay in all cases: SiMPull
Details in all cases: negligible binding; SiMPull/smPIFE on PEG surface, 1 nM labeled RNA, unbound RNA washed out; binding buffer; protein in a lysate after overexpression; protein details: EYFP at C-terminus; label: 3' amine-Cy3
[1] = target: T1, Staufen1 (Stau1)-EYFP (human) (UniProt O95793)
T1 sequence (looked up, limits assumed): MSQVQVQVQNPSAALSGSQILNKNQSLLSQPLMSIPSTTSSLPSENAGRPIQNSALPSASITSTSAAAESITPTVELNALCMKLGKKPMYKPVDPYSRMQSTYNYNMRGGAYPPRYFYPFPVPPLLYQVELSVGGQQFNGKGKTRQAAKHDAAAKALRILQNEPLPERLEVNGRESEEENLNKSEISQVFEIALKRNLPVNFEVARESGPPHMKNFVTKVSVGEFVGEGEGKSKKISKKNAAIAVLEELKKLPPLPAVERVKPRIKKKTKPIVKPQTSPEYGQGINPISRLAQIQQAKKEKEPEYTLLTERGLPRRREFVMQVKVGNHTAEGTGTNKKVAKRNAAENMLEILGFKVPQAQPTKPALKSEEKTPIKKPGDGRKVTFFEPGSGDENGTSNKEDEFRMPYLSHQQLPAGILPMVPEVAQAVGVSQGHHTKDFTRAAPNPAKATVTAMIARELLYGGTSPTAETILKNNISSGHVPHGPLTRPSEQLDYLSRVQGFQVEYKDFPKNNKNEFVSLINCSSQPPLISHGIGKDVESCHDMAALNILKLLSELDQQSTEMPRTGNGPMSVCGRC

[2] = target: ADAD2-EYFP (human) (UniProt Q8NCV1)
[3] = target: T2, TRBP (TRBP2)-EYFP (human) (UniProt Q15633)
T2 sequence: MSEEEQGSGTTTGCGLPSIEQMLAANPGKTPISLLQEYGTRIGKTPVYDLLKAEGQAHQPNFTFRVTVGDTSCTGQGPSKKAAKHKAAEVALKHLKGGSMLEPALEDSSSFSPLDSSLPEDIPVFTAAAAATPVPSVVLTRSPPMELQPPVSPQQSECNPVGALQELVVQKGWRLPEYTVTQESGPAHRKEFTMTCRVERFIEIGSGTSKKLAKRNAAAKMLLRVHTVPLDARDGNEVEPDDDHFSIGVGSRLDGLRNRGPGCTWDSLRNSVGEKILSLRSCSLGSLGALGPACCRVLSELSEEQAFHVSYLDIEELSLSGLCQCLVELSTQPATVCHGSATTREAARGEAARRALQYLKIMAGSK

Measured: binding result

UUUUUUUUUUUUUUUUUUUUUUUUUUUUUUUUUUUUUUUU [U40]
no binding: all assays above
